In this assay the target is T1, Vg:V5:6xHis (Vestigial) (Drosophila) (UniProt Q26366).
T1 sequence: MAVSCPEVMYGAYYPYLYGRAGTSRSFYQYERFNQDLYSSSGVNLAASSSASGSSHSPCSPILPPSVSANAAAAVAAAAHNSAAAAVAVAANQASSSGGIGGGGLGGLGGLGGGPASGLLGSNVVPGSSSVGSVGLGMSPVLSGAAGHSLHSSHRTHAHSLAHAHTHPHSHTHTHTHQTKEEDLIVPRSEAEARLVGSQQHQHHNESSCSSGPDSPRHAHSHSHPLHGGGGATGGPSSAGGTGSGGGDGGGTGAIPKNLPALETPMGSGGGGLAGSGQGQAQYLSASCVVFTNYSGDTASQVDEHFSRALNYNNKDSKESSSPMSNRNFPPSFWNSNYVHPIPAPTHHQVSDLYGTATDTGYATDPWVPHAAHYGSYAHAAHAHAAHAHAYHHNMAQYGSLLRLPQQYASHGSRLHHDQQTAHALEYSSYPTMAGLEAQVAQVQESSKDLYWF
Put plainly: co-IP; lysates (RIPA buffer) of S2 cells co-expressing Atro, Vg and Sd; Vg:V5 precipitated with V5-Trap magnetic agarose beads, 1 h; western blot. A general note: In western blotting, separated proteins are transferred to a membrane and probed.

Protein sequences, listed by entry. Tags and fused reporters are not part of them.
UniProt P30052: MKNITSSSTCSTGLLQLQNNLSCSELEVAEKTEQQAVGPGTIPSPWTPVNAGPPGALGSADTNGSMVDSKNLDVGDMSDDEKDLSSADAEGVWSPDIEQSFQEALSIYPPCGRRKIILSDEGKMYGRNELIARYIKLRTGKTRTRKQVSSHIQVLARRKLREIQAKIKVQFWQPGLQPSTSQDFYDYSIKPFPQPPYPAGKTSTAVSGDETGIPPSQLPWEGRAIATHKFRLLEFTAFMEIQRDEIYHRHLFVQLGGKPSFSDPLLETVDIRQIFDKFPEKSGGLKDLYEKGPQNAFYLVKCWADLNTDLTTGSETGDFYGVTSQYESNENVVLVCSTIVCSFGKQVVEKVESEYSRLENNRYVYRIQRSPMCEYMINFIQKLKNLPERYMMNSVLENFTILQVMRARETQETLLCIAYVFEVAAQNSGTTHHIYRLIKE

Results are given in words; binding and its absence hold for the method and conditions named. Binding seen in cells or lysates may run through a third protein. Some results given as binding are weak or reduced against the parent protein; the word gives no strength. Tags and fused reporters may be left off the sequences shown.

As for “Sd:Myc (Scalloped) (from UniProt P30052 1-440)”, the binding result is given as “binds”.

The record behind these values is paper PMC13480958.
